From patent EP4699610A1, “PHARMACEUTICAL COMPOSITION FOR TREATING GLIOMA” (SymBio Pharmaceuticals Limited, priority 2023, dated 2024)
For at least one compound, name, drawing or mass did not settle the structure.

System: U87MG human glioblastoma (GBM) cell line
Test: BCV and TMZ combination in U87MG GBM animal model, BLI and survival rate (Example 2)
Conditions: 2 mg/kg TMZ monotherapy

## Cn1nnc2c(C(N)=O)ncn2c1=O [TMZ, temozolomide]
  survival rate on day 37 post-GBM implantation: no individuals survived
